Measured values reported in PubChem BioAssay AID662 (National Center for Advancing Translational Sciences (NCATS), 2007).
The list shows a part of the results. The main result of the screen is listed elsewhere. These columns were measured beside it and carry no call. The list favours compounds with an active or inconclusive main result. Words in brackets tell the shape of the fitted curve; partial curves, single points and poor fits give uncertain potencies.

assay: Cell signaling CRE-BLA (Fsk stim); conditions: CHO CRE-bla reporter (cAMP response element driving beta-lactamase), forskolin EC10, beta-lactamase ratio; measured here: 460 nm blue channel
Text: NIH Molecular Libraries Screening Centers Network [MLSCN]
NIH Chemical Genomics Center [NCGC]
Assay Provider: Marshall W. Nirenberg, U.S. National heart lung & blood institute
Memories persist for different lengths of time, from seconds or minutes to a lifetime. There are two kinds of memory: short-term memory (STM) and long-term memory (LTM). STM lasts for minutes to hours, which maybe mediated by modifications of molecules involved in synaptic functions. LTM lasts for days or longer, and may be due to the formation of new synapses or restructuring of existing synapses. LTM, but not STM, requires gene transcription and synthesis of proteins. CREB (cyclic-AMP Responsive Element Binding Protein) is one of the candidates plays an important role for enhancement of some types of LTM. CREB, a family of transcription factors, regulates the transcription of genes containing cAMP Responsive Elements (CRE). CRE is a nucleotide sequence often found in the promoter regions of genes that are binding sites for CREB.
Using a beta-lactamase reporter-gene under control of cAMP responsive element, a cell-based assay [CellSensor(TM) CRE-bla CHO developed by Invitrogen Corp.] was used to measure forskolin-induced signaling. Library compounds were measured for their ability to modulate positively or negatively the action of EC10 NKH 477, a water soluble forskolin, on reporter gene activity. Compounds were screened in a titration series in 1536-well format. Positive and negative modulators were identified based on the AC50 values derived from the screening data.
NCGC Assay Protocol Summary
2000 cells/5uL in Opti-MEM medium containing 0.5% dialyzed FBS, 0.1 mM NEAA, 1 mM sodium pyruvate and 10 mM HEPES was dispensed into 1536-well plates and cells were cultured at 37 degrees Celsius overnight. […] And then the plates were incubated at 37 degrees Celsius for 3 hours. 1 uL of CCF4-dye mixture was added to each well. After incubated at room temperature for 2 hours the plates were measured on an EnVision plate reader at Excitation 405nm, Emission1=460nm and Emission 2=530nm. The %Activity was determined from the ratio of 460nm/530nm.
Keywords: NIH Roadmap, MLSCN, MLSMR, qHTS, NCGC, CRE, beta-lactamase reporter-gene assay.

Q: With `O=C(CSc1n[nH]c(-c2ccco2)n1)Nc1sc2c(c1C(=O)Nc1ccccc1)CCCC2` as the compound, how does the AC50 read?
A: 2 µM [rising, full curve]

Q: Which AC50 does the source give for `O=C(OCc1nnc(-c2ccccc2)o1)c1cc(S(=O)(=O)N2CCOCC2)c(Cl)cc1Cl` here?
A: 3.16 µM [falling, partial curve]

Q: Which AC50 does the source give for `COC(=O)c1c(C#N)c(N)nc2c1CCC2` here?
A: 2.51 µM [rising, full curve]

Q: Which AC50 does the source give for `CCOC(=O)c1oc2ccc(Br)cc2c1CSc1nnc(C)s1` here?
A: 15.8 µM [falling, single point]

Q: Which AC50 does the source give for `O=C(COc1ccccc1F)NC1CC1` here?
A: 0.00398 µM [falling, full curve]

Q: Which AC50 does the source give for `Cc1nc2c(C(=O)N3CCN(c4ccccn4)CC3)cnn2c(C)c1Cc1cccc(Cl)c1` here?
A: 7.94 µM [rising, partial curve]

Q: Which AC50 does the source give for `C=CCn1c(SCC(=O)Nc2cc(C)c(Cl)cc2OC)nnc1-c1ccco1` here?
A: 10 µM [rising, partial curve]

Q: Which AC50 does the source give for `Cc1ccc(C)c(-n2c(SCC(=O)N3CCCC3)nnc2-c2ccccn2)c1` here?
A: 12.6 µM [rising, single point]

Q: For `Cc1ccccc1-c1nc(CN2CCC(C(=O)NCCCN3CCCC3)CC2)c(C)o1`, which AC50 is on record?
A: 0.2 µM [rising, full curve, poor fit]

Q: For `O=c1c(-c2ccc(Cl)cc2)nc2cnc(N3CCNCC3)nc2n1Cc1cccs1`, which AC50 is on record?
A: 2 µM [rising, full curve]

Q: For `CC(C)c1ccc(OCC(O)CN2CCN(c3ccccc3)CC2)cc1` (centres undefined), which AC50 is on record?
A: 0.0794 µM [falling, full curve, poor fit]

Q: With `O=C1CS/C(=N\C(=O)N2c3ccccc3Sc3ccccc32)N1` as the compound, how does the AC50 read?
A: 5.01 µM [falling, partial curve, poor fit]

Q: For `CCOC(=O)CC(=O)CSc1nc2sc(C)cc2c(=O)n1Cc1ccco1`, which AC50 is on record?
A: 7.94 µM [rising, partial curve]

Q: Which AC50 does the source give for `Cc1ccccc1Nc1nn2c(=O)c3ccccc3nc2s1` here?
A: 0.631 µM [rising, full curve]

Q: With `Cc1cc(C)c(S(=O)(=O)Nc2cccc(C(F)(F)F)c2)c(C)c1` as the compound, how does the AC50 read?
A: 15.8 µM [falling, partial curve]

Q: For `Cn1c(-c2ccc3c(c2)OCO3)cnc1NCc1cccc(Cl)c1`, which AC50 is on record?
A: 5.01 µM [falling, partial curve]

Q: With `Cc1cccc2cc(C#N)c(N3CCCC3)nc12` as the compound, how does the AC50 read?
A: 12.6 µM [rising, partial curve]

Q: For `CCc1nc2sc3c(c2c(=O)n1N)CCC3`, which AC50 is on record?
A: 10 µM [rising, single point]

Q: With `CCOC(=O)c1c(NC(=O)c2ccoc2C)sc2c1CCC2` as the compound, how does the AC50 read?
A: 5.01 µM [rising, partial curve]

Q: Which AC50 does the source give for `CCOCCCNC(=O)C1CCN(c2cc(C)nc3c(-c4ccc(OC)c(OC)c4)c(C)nn23)CC1` here?
A: 5.01 µM [rising, partial curve]

Q: With `Cc1cc(NCCN2CCOCC2)n2nc(C)c(-c3ccc(Cl)cc3)c2n1` as the compound, how does the AC50 read?
A: 0.251 µM [rising, full curve]

Q: For `CCN1CCN(C(=O)c2cc3c(-c4ccc(Cl)cc4)nn(C)c3s2)CC1`, which AC50 is on record?
A: 10 µM [rising, partial curve]

Q: Which AC50 does the source give for `COCCCN1C(=O)C(O)=C(C(=O)c2ccco2)C1c1cccc(Br)c1` (centres undefined) here?
A: 0.631 µM [falling, single point]

Q: For `COc1ccccc1N1CCN(CC(O)COc2ccc(S(=O)(=O)N3CCOCC3)cc2)CC1` (centres undefined), which AC50 is on record?
A: 5.01 µM [falling, partial curve]

Q: Which AC50 does the source give for `Cn1c(=O)c2c(nc(CN3CCC(C(N)=O)CC3)n2CCCc2ccccc2)n(C)c1=O` here?
A: 25.1 µM [rising, single point]

Q: With `O=C1CC(C(=O)Nc2ccccc2)C2(CCCC2)O1` (centres undefined) as the compound, how does the AC50 read?
A: 12.6 µM [falling, single point]

Q: With `CCOc1ccccc1NC=C1C(=O)OC(C)(C)OC1=O` as the compound, how does the AC50 read?
A: 10 µM [rising, single point]

Q: With `CCCCOCCCNS(=O)(=O)Cc1ccccc1` as the compound, how does the AC50 read?
A: 0.00794 µM [falling, full curve]

Q: For `CCc1nc(N)c(C#N)c(-c2ccccc2OC)c1C`, which AC50 is on record?
A: 20 µM [rising, single point]

Q: For `Cc1cccc(N2C(N)=NC(N)=NC23CCCCC3)c1`, which AC50 is on record?
A: 0.501 µM [falling, full curve]

Q: For `O=C(CC1Sc2ccccc2NC1=O)OCC(=O)N1CCc2ccccc21` (centres undefined), which AC50 is on record?
A: 3.16 µM [falling, partial curve]

Q: Which AC50 does the source give for `CNc1nc(C)nc(-n2nc(C)cc2C)n1` here?
A: 10 µM [rising, single point]

Q: With `CCOc1cc(C2CC(=O)NC3=C2C(=O)C(C(=O)OC)C(C)C3)cc(Cl)c1O` (centres undefined) as the compound, how does the AC50 read?
A: 12.6 µM [rising, single point]

Q: Which AC50 does the source give for `C=CCn1c(N2CCCCCC2)nc2c1c(=O)n(C)c(=O)n2C` here?
A: 12.6 µM [rising, partial curve]

Q: Which AC50 does the source give for `Fc1ccc(Br)cc1C1C=C(c2cccnc2)Nc2ncnn21` (centres undefined) here?
A: 12.6 µM [rising, single point]

Q: Which AC50 does the source give for `COC(=O)CCC(=O)Nc1ccc(OC)cc1` here?
A: 0.316 µM [rising, partial curve, poor fit]

Q: For `NC(=O)c1oc2ccc(Cl)cc2c1N`, which AC50 is on record?
A: 0.02 µM [falling, full curve, poor fit]

Q: With `COCCNC(=O)C(c1ccco1)N(Cc1ccc(OC)cc1)C(=O)Cn1nnc2ccccc21` (centres undefined) as the compound, how does the AC50 read?
A: 0.1 µM [falling, full curve, poor fit]

Q: With `COc1ccccc1NC(=O)CN1CCN(c2ccc(Cl)cc2)CC1` as the compound, how does the AC50 read?
A: 0.316 µM [rising, full curve, poor fit]

Q: With `O=C(O)C(=Cc1ccc(-c2ccccc2)cc1)C(=O)O` as the compound, how does the AC50 read?
A: 3.98 µM [falling, partial curve, poor fit]

Q: Which AC50 does the source give for `CC(=O)Nc1cc2ccc(OC(C)=O)cc2oc1=O` here?
A: 3.16 µM [rising, full curve]

Q: For `C=C1C(=O)O[C@H]2C[C@@]3(C)CCCC(=C)[C@@H]3C[C@H]12`, which AC50 is on record?
A: 20 µM [falling, partial curve, poor fit]

Q: With `COc1ccc2[nH]cc(CCNc3nc(-c4cccnc4)nc4ccccc34)c2c1` as the compound, how does the AC50 read?
A: 6.31 µM [rising, partial curve]

Q: With `CC(C)n1cnc2cc(NCc3nc4ccccc4n3C)ccc21` as the compound, how does the AC50 read?
A: 25.1 µM [rising, single point]
